Assay results from US20250353924A1 (CITY OF HOPE, published 2025).
These are yes or no findings as the source states them, for the method shown. Some results given as binding are weak or reduced against the parent protein; the word gives no strength.

Tests used:
[1] = molecular target: T1, CD84 (soluble protein used for the 8A5-CD84 crystal structure, FPLC co-elution and SPR) (human) (UniProt Q9UIB8); assay: SPR, anti-HIS antibodies immobilized, Fabs injected at 300, 100, 30 and 10 nM at 25° C.
T1 sequence (looked up): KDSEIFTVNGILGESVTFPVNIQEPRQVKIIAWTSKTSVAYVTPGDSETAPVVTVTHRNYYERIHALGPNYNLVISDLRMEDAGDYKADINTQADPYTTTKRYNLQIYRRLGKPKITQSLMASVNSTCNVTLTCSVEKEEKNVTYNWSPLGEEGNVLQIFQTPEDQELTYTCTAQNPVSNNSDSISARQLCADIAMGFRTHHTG

[2] = molecular target: T1, CD84 (soluble protein used for the 8A5-CD84 crystal structure, FPLC co-elution and SPR) (human); assay: FPLC size exclusion co-elution of Fab and CD84

B1: chimeric anti-CD84 Fab of clone 5C6 (Fab, V domains shown)
VH: QVHLQQSGAELVRPGTSVKISCKASGYTFTNYWLGWVKQRPGHGLEWIGDIFPGGGYINYHEKFKGKATLTADTSSSTAYMQLSSLTSEDSAVYFCGYGNIAMDYWGQGTSVTVSS
VL: QIILTQTPAIMSASPGEKVTMTCSASSSVSYVHWYQQKSGTSPKRWIYDTSKLASGVPARFSGSGSGTSYSLTISTMEAEDAATYYCQQWNNSPRTFGGGTKLEIKR
binding [1]: binds | binding [2]: binds

B2: chimeric anti-CD84 Fab of clone 7D2 (Fab, V domains shown)
VH: QVHLQQSGAELVRPGTSVKISCKASGYTFTNYWLGWVKQRPGHGLEWIGDIFPGGGYINYHEKFKGKATLTADTSSSTAYMQLSSLTSEDSAVYFCAYGNVAMDYWGQGTSVTVSS
VL: QIILTQTPAIMSASPGEKVTVTCSASSSVSYVHWYQQKSGTSPKRWIYDTSKLASGVPARFSGSGSGTSYSLTISTMEAEDAATYYCQQWNNSPRTFGGGTKLEIKR
binding [1]: binds | binding [2]: binds
